The test concerns the target sialylated TLR2 (mouse (endogenous in BMMs)) (UniProt Q9QUN7). The experiment in a line: co-IP; endogenous proteins in lysates (IP buffer with protease inhibitors) of mouse BMMs induced to osteoclasts; IP with anti-TLR2, anti-Siglec15 or anti-DAP12, Protein A/G, immunoblot; in Fig. 5 the BMMs were induced with RANKL, sialidase or both. Background: Immunoblotting shows a protein as a band on a membrane.

Amino acid sequences for entries named in this document (tags omitted). Residues count along the entry.
UniProt Q9QUN7, residues 25-784: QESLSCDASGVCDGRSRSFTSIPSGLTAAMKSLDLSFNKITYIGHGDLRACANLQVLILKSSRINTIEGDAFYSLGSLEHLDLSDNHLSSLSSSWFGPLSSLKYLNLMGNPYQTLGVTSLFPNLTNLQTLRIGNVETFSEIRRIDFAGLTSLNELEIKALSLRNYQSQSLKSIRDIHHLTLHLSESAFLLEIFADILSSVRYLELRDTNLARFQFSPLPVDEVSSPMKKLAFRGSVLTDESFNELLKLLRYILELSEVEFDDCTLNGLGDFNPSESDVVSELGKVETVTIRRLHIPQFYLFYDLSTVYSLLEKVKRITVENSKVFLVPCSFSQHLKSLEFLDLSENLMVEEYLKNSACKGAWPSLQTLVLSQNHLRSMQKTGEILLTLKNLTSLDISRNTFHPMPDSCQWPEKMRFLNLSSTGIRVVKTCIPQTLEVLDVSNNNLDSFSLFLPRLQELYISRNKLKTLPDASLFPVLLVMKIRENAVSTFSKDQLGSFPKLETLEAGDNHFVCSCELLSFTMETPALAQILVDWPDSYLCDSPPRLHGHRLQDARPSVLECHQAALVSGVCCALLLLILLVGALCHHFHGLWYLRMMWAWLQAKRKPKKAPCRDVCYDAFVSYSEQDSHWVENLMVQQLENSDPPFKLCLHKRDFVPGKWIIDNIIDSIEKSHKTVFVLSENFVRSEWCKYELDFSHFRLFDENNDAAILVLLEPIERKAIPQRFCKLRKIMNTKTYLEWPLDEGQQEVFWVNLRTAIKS
UniProt P22366: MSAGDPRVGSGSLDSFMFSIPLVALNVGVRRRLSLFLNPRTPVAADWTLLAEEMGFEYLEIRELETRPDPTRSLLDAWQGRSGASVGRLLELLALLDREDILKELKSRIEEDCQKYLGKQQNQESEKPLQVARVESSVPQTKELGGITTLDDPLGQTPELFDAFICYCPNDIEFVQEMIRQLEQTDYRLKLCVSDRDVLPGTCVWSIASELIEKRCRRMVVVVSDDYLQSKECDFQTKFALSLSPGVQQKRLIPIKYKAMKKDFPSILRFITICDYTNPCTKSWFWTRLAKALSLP

No constants are given. Whether binding was seen depends on the method and setting. In cells and extracts the contact can be indirect. Some results given as binding are weak or reduced against the parent protein; the word gives no strength.

As for “myeloid differentiation primary response protein 88 (MyD88) (from UniProt P22366 1-296)”, the binding entry is given as “binds”.

The record behind these values is article PMC8888621.
